Test results as given in patent US20080200376A1, “Compositions and Methods For the Treatment Of Obesity and Sexual Dysfunction” (priority 2004, published 2008).
For some of these results: For at least one compound, name, drawing or mass did not settle the structure. Some entries share one result that the patent states for a list of compounds. Some compounds share one range, which may span the group rather than tell each member.

Chains of the proteins cited; added tags and fusions are not shown. Lines headed by an entry give the natural chain unless they say otherwise; changes in a name come on top.
UniProt Q01726: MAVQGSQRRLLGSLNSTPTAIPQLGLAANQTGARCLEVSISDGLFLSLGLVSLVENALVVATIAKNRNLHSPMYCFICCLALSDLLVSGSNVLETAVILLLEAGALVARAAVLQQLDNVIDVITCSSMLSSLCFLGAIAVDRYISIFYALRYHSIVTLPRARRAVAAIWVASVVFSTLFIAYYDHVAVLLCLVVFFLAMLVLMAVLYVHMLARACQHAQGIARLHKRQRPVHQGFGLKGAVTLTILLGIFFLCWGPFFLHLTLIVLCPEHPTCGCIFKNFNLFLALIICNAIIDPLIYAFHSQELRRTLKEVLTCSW

How the values were obtained:
hMC1bR = hMC1bR (Homo sapiens, UniProt Q01726); assay: cAMP functional assay (agonist); format: cell-based; details: selective functional activity
Description: Cells (for example, CHO— or L-cells or other eukaryotic cells) expressing a human melanocortin receptor (see e.g. Yang-YK; Ollmann-MM; Wilson-BD; Dickinson-C; Yamada-T; Barsh-GS; Gantz-I; Mol-Endocrinol. 1997 March; 11(3): 274-80) were dissociated from tissue culture flasks by rinsing with Ca and Mg free phosphate buffered saline (14190-136, Life Technologies, Gaithersburg, Md.) and detached following 5 min incubation at 37° C. with enzyme free dissociation buffer (S-014-B, Specialty Media, Lavellette, N.J.). Cells were collected by centrifugation and resuspended in Earle's Balanced Salt Solution (14015-069, Life Technologies, Gaithersburg, Md.) with additions of 10 mM HEPES pH 7.5, 5 mM MgCl2, 1 mM glutamine and 1 mg/ml bovine serum albumin. Cells were counted and diluted to 1 to 5×10^6/mL. The phosphodiesterase inhibitor 3-isobutyl-1-methylxanthine was added to cells to 0.6 mM.
Agonist Assay: Test compounds were diluted in dimethylsulfoxide (DMSO) (10^−5 to 10^−10 M) and 0.1 volume of compound solution was added to 0.9 volumes of cell suspension; the final DMSO concentration was […]. After room temperature incubation for 45 min, cells were lysed by incubation at 100° C. for 5 min to release accumulated cAMP.
cAMP was measured in an aliquot of the cell lysate with the Amersham (Arlington Heights, Ill.)
cAMP detection assay (RPA556). […]

[1] = drug compared to placebo; cited from earlier work

Row | Compound | EC50 for the melanocortin 4 receptor lower than for the melanocortin 1 receptor (hMC1bR) | weight loss [1]
1 | CC[C@H](NC(C)=O)c1cc(Cl)ccc1C1CCN(C(=O)[C@@H]2CN(C(C)(C)C)C[C@H]2c2ccc(F)cc2F)CC1 [Compound A] | at least 120 fold | 
2 | CCN[C@@H](C)Cc1cccc(C(F)(F)F)c1 [dexfenfluramine] |  | 5%-10%
3 | CC(C)(N)Cc1ccccc1 [phentermine] |  | 5%-10%
4 | CC(C)CC(N(C)C)C1(c2ccc(Cl)cc2)CCC1 (stereo not shown) [sibutramine] |  | 5%-10%
